PubChem BioAssay AID743454 – Peter MacCallum Cancer Centre | 2014
Test: 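Genes whose loss kills vorinostat-resistant colon cancer cells under vorinostat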 (primary screen). Cell system: human HCT116-VR colon cancer cells, selected for vorinostat resistance. Reagents: siRNA pool against human genes, 40 nM siRNA pool. Time to read-out: vorinostat for 24 h, read-out about 72 h after transfection. Challenge: vorinostat at 2.5 µM final. Measured: 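Two measures, CellTiter-Fluor viability and luminescent caspase 3/7 activity, each as fold change against same-plate mock wells, mean of duplicates, then screen-wide robust z-score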. Scale: viability robust z-score: higher = more viable cells than screen typical; caspase robust z-score: higher = more caspase 3/7 activity than screen typical. Rule for the call: 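Hits are knock-downs in viability class RV1/RV2 or caspase class CA1/CA2, excluding ones that killed cells in the no-drug cell-count arm; hits then retested with single siRNAs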.
The whole screen tested about 18,000 reagents; below is an unselected part. 450 of all reagents (2.5%) were called active. 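Single biological run; no consistent viability z cut-off exists, so the class columns, not z-scores, define the calls.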 Unmarked entries are inactive. No sequences are given here.

SGTA — viability hit class: no change; caspase hit class: no change; viability robust z-score: 0.36; caspase robust z-score: -0.1
D2HGDH (D-2-hydroxyglutarate dehydrogenase) — viability hit class: no change; caspase hit class: no change; viability robust z-score: -0.68; caspase robust z-score: -0.37
BORCS7 (BLOC-1 related complex subunit 7) — viability hit class: no change; caspase hit class: no change; viability robust z-score: -1.82; caspase robust z-score: -0.91
COMMD4 (COMM domain containing 4) — viability hit class: no change; caspase hit class: no change; viability robust z-score: -1.29; caspase robust z-score: -1.28
SLC5A3 — viability hit class: no change; caspase hit class: no change; viability robust z-score: 0.64; caspase robust z-score: -0.15
SSTR2 (somatostatin receptor 2) — viability hit class: no change; caspase hit class: no change; viability robust z-score: 0.71; caspase robust z-score: 1.7
APOA2 (apolipoprotein A2) — viability hit class: no change; caspase hit class: no change; viability robust z-score: -1.12; caspase robust z-score: 3.56
SLC19A3 — viability hit class: no change; caspase hit class: no change; viability robust z-score: 1.06; caspase robust z-score: -0.59
UBE2J1 (ubiquitin conjugating enzyme E2 J1) — viability hit class: no change; caspase hit class: no change; viability robust z-score: 0.79; caspase robust z-score: -0.53

2 of these entries in another layout.
| Target gene | viability hit class | caspase hit class | viability robust z-score | caspase robust z-score |
| --- | --- | --- | --- | --- |
| APOA2 (apolipoprotein A2) | no change | no change | -1.12 | 3.56 |
| SLC19A3 | no change | no change | 1.06 | -0.59 |

Additional reagents follow.
GCSAML (germinal center associated signaling and motility like) — viability hit class: no change; caspase hit class: no change; viability robust z-score: 0.24; caspase robust z-score: -0.32
OR2T3 (olfactory receptor family 2 subfamily T member 3) — viability hit class: no change; caspase hit class: no change; viability robust z-score: -0.26; caspase robust z-score: -0.23
PCYT2 (phosphate cytidylyltransferase 2, ethanolamine) — viability hit class: no change; caspase hit class: no change; viability robust z-score: 1.12; caspase robust z-score: -0.22
JUNB (JunB proto-oncogene, AP-1 transcription factor subunit) — viability hit class: no change; caspase hit class: no change; viability robust z-score: 1.51; caspase robust z-score: -0.24
F13A1 (coagulation factor XIII A chain) — viability hit class: no change; caspase hit class: no change; viability robust z-score: 0.31; caspase robust z-score: -0.54
SURF4 (surfeit 4) — viability hit class: no change; caspase hit class: no change; viability robust z-score: 0.51; caspase robust z-score: 2.36
MIGA2 (mitoguardin 2) — viability hit class: no change; caspase hit class: no change; viability robust z-score: -0.24; caspase robust z-score: -0.76
RRM2B — viability hit class: no change; caspase hit class: no change; viability robust z-score: -0.02; caspase robust z-score: 1.03
EFNA4 (ephrin A4) — viability hit class: no change; caspase hit class: no change; viability robust z-score: 1.22; caspase robust z-score: 0.98
ITM2B (integral membrane protein 2B) — viability hit class: no change; caspase hit class: no change; viability robust z-score: 0.94; caspase robust z-score: 0.49
POM121L2 (POM121 transmembrane nucleoporin like 2) — viability hit class: no change; caspase hit class: no change; viability robust z-score: -0.46; caspase robust z-score: 2.2
PPEF1 (protein phosphatase with EF-hand domain 1) — viability hit class: no change; caspase hit class: no change; viability robust z-score: -1.75; caspase robust z-score: 2.08
KCNH7 (potassium voltage-gated channel subfamily H member 7) — viability hit class: no change; caspase hit class: no change; viability robust z-score: -1.9; caspase robust z-score: 1.19
CD36 (CD36 molecule (CD36 blood group)) — viability hit class: no change; caspase hit class: no change; viability robust z-score: 0.1; caspase robust z-score: -0.52
CLDN15 (claudin 15) — viability hit class: no change; caspase hit class: no change; viability robust z-score: 0.11; caspase robust z-score: 0.87
SLC7A1 — viability hit class: RV1 (reduced viability) (active); caspase hit class: no change; viability robust z-score: -3.06; caspase robust z-score: 1.27
OAS3 (2'-5'-oligoadenylate synthetase 3) — viability hit class: no change; caspase hit class: no change; viability robust z-score: 1.02; caspase robust z-score: -0.51
INPP4A (inositol polyphosphate-4-phosphatase type I A) — viability hit class: no change; caspase hit class: no change; viability robust z-score: -0.36; caspase robust z-score: -0.3
